Laboratory results as given in patent US9988607B2, “Artificial three-dimensional microenvironment niche culture and methods of using the same” (priority 2008, dated 2018).
Some entries share one result that the patent states for a list of compounds.

B1: vitronectin: extracellular matrix factor, 6 μg/ml (protein, UniProt P04004 20-478, looked up)
Vitronectin: DQESCKGRCTEGFNVDKKCQCDELCSYYQSCCTDYTAECKPQVTRGDVFTMPEDEYTVYDDGEEKNNATVHEQVGGPSLTSDLQAQSKGNPEQTPVLKPEEEAPAPEVGASKPEGIDSRPETLHPGRPQPPAEEELCSGKPFDAFTDLKNGSLFAFRGQYCYELDEKAVRPGYPKLIRDVWGIEGPIDAAFTRINCQGKTYLFKGSQYWRFEDGVLDPDYPRNISDGFDGIPDNVDAALALPAHSYSGRERVYFFKGKQYWEYQFQHQPSQEECEGSSLSAVFEHFAMMQRDSWEDIFELLFWGRTSAGTRQPQFISRDWHGVPGQVDAAMAGRIYISGMAPRPSLAKKQRFRHRNRKGYRSQRGHSRGRNQNSRRPSRATWLSLFSSEESNLGANNYDDYRMDWLVPATCEPIQSVFFFSGDKYYRVNLRTRRVDTVDPPYPRSIAQYWLGCPAPGHL
B2: Noggin: growth factor, 150 ng/ml (protein, UniProt Q13253 28-232, looked up)
Noggin: QHYLHIRPAPSDNLPLVDLIEHPDPIFDPKEKDLNETLLRSLLGGHYDPGFMATSPPEDRPGGGGGAAGGAEDLAELDQLLRQRPSGAMPSEIKGLEFSEGLAQGKKQRLSKKLRRKLQMWLWSQTFCPVLYAWNDLGSRFWPRYVKVGSCFSKRSCSVPEGMVCKPSKSVHLTVLRWRCQRRGGQRCGWIPIQYPIISECKCSC

System: hESC and HDF cells
Experiment: Biomaterial microarray screening scored for cell growth, survival and culture health versus Matrigel control
Format: cell-based, human
Conditions: ECM, growth factor and crude factor screens on hyaluronan hydrogel; after 5 days; averaged from hESC and HDF

| Molecule | Score of cell growth, survival and overall culture health |
| --- | --- |
| fibronectin | ≥ 3 |
| laminin | ≥ 3 |
| B1 | ≥ 3 |
| B2 | ≥ 3 |
